System: NIDDM patients inadequately controlled on metformin alone
Conditions: mean ± SD, baseline to end of maintenance treatment period

Structure (SMILES) | Change in HDL cholesterol | Change in LDL cholesterol | Change in total cholesterol | Change in triglycerides
CN(C)C(=N)N=C(N)N [Metformin, metformin] | 0.07 mmol/L | 0.10 mmol/L | 0.13 mmol/L | -0.20 mmol/L
CCOc1cc(CC(=O)N[C@@H](CC(C)C)c2ccccc2N2CCCCC2)ccc1C(=O)O [Repaglinide, (S)-(+)-2-ethoxy-4-[2-[[3-methyl-1-[2-(1-piperidinyl)phenyl]butyl]amino]-2-oxo-ethyl]benzoic acid] | 0.09 ± 0.03 mmol/L | 0.41 ± 0.12 mmol/L | 0.38 ± 0.12 mmol/L | 0.09 ± 0.16 mmol/L
